System: T. cruzi epimastigotes
Assay: alamarBlue assay on T. cruzi epimastigotes
Format: cell-based, Trypanosoma cruzi
Conditions: against T. cruzi epimastigotes
Description: In a 96-well plate, a serial dilution of the tested derivatives was performed in liver infusion tryptose medium supplemented with 10% heat inactivated fetal bovine serum. Later, 100 µL of 5 × 10^5 cells/mL of epimastigotes was added to each well. Afterwards, 20 µL of alamarBlue® was added to each well, and the plate was maintained at 26 °C for 72 h.
Cytotoxicity effect of the tested derivatives was conducted using macrophages of the murine cell line J774.A1 (American Type Culture Collection #TIB-67, city, country), as previously described. The cells were maintained in DMEM at 37 °C in a 5% CO2 humidified incubator. All the plates containing alamarBlue® were analyzed using a plate reader EnSpire Multimode Plate Reader® at excitation and emission wavelengths of 570 and 585 nm, respectively (PerkinElmer, ThermoFisher Scientific, Madrid, Spain). The IC50 (concentrations able to inhibit 50% of parasites), IC90 (concentrations able to inhibit 90% of parasites), and CC50 (concentration able to inhibit 50% of murine macrophages) values were determined for each compound by nonlinear regression using GraphPad software.

SMILES	increase in potency compared to the parent compound (1) [fold]
Cc1ccc(C(C)C)c(OC(=O)c2ccccn2)c1 [Derivative 10, thymyl picolinate]	5
COc1ccc(C(=O)Oc2cc(C)ccc2C(C)C)cc1 [Derivative 9, thymyl anysoate]	7
